Laboratory results taken from PubChem BioAssay AID687031 (Broad Institute, 2013).
The whole screen tested about 1,400 compounds, of which about 50 (4%) were called active.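 Rule for the calls: active = fitted curve reaches 30% CPE protection at or below the top valid dose, with every test run called active; inconclusive = test runs disagree, some active and some not; inactive = every test run inactive, including effects in the wrong direction.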 Some of the results follow. Measured potencies and affinities stand elsewhere.

Test: antiviral rescue of DENV2-infected BHK-21 cells – cell-based, ATP luminescence, cherry-pick, dose response (AID 687031);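 note: 0% = infected DMSO wells and 100% = uninfected cell wells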
Conditions: BHK-21 DENV2 CPE protection, 5 d; at 19.5 µM (top of the series) unless noted

Row | Structure (SMILES) | CPE protection (higher = active)
1 | Cc1c(C(=O)Nc2ccccc2F)sc2ncn(CC(=O)N3CCOCC3)c(=O)c12 | inactive: -2.2%
2 | CO[C@@H](CN(C)C(=O)c1cc(Cl)cc(Cl)c1)[C@H](C)CN(C(=O)Nc1ccc(F)cc1)[C@@H](C)CO | inactive: 21.3% [at 10 µM]
3 | CCc1ccc(OCC(O)CN2CCN(c3ccccc3)CC2)cc1 (configuration not stated) | inactive: 11.7%
4 | C[C@H](CO)N1C[C@H](C)[C@@H](CN(C)S(=O)(=O)c2cn(C)cn2)OCCCC[C@H](C)Oc2ccc(NC(=O)Cc3ccccc3)cc2C1=O | inactive: 9.85%
5 | COc1ccc(-c2nc3ccc(C)cn3c2Cc2cccc(F)c2)cc1OC | inactive: -19.3%
6 | COc1cc(C(=S)N2CCCCC2)ccc1OCC(=O)Nc1ccc(F)cc1 | inactive: -0.751%
7 | CCc1c(C(=O)Nc2cc(C(=O)OC)ccc2C)csc1C | inactive: 31.5%
8 | CCC(C)[C@H]1COCCS(=O)(=O)N1Cc1ccc(Br)cc1 (some centres not stated) | inactive: 6.82%
9 | COc1ccc(C(C)(NC(C)=O)c2nc(-c3cccc(F)c3)cs2)cc1 (configuration not stated) | inactive: 10%
10 | CN(CC(=O)Nc1cccc(F)c1)C(=O)c1ccccc1CCc1ccccc1 | inactive: -11.4%
11 | COc1ccc(NC(=O)CN(C)C(=O)CC2CCCC2)cc1 | inactive: -21.2%
12 | c1ccc(CCNCCCOc2cccc3ccccc23)cc1 | inactive: -16.8%
13 | O=C(c1cc(-c2ccccc2)n[nH]1)N1CCN(S(=O)(=O)c2ccccc2)CC1 | inactive: 8.57%
14 | CCN(CC(=O)Nc1c(F)cccc1F)C(=O)c1cccc(S(=O)(=O)NCc2ccccc2)c1 | inactive: -0.434%
15 | N#Cc1ccc(CN2CCN(C(=O)CC(NC(=O)c3ccccc3)c3ccccc3)CC2)cc1 (configuration not stated) | inactive: -5.27%
16 | O=C(NCc1ccccc1F)[C@H]1N[C@H]2c3ccc(-c4ccccc4F)c(=O)n3C[C@H]2[C@@H]1CO | inactive: 22.1%
17 | O=C(NCc1ccccc1)[C@H]1CCCN1C(=O)[C@@H]1CCCN1C(=O)c1ccc(Cl)cc1Cl | inactive: -7.08%
18 | O=C(CN1CCN(Cc2ccccc2)CC1)NNC(=O)c1ccccc1 | inactive: -9.21%
19 | Cc1cccc(N(C)c2cc(C)nc3nc(C)nn23)c1 | inactive: 10.8%
20 | COc1ccc(NC(=O)N[C@@H]2CC[C@@H](CCNS(=O)(=O)c3cccc(Cl)c3)O[C@@H]2CO)cc1 | inactive: -1.55%
21 | CN(C)S(=O)(=O)N1CCC(Oc2ccc(C(=O)N3CCCCCCC3)cc2)CC1 | inactive: -20.8%
22 | CC(OC(=O)c1ccc(O)cc1)C(=O)Nc1nc(-c2ccccc2)cs1 (configuration not stated) | inactive: 25.2%
23 | CCn1c(=O)n(CC)c2cc(N3CCCC3)c(NC(=O)c3ccc(C)cc3)cc21 | inactive: -11.9%
24 | CC(C)C(=O)Nc1nnc(S(=O)(=O)N2CCc3ccccc32)s1 | inactive: 5.09%
25 | Cc1ccc(-c2csc(NC(=O)c3ccc(S(=O)(=O)N4CCc5ccccc54)cc3)n2)cc1 | inactive: -18%
26 | O=C(c1ccc2c(c1)OCO2)N1CCC(Cc2ccccc2)CC1 | inactive: -8.26%

Some of the entries so far, tab-delimited:
Row	Structure (SMILES)	CPE protection (higher = active)
8	CCC(C)[C@H]1COCCS(=O)(=O)N1Cc1ccc(Br)cc1 (some centres not stated)	inactive: 6.82%
9	COc1ccc(C(C)(NC(C)=O)c2nc(-c3cccc(F)c3)cs2)cc1 (configuration not stated)	inactive: 10%
10	CN(CC(=O)Nc1cccc(F)c1)C(=O)c1ccccc1CCc1ccccc1	inactive: -11.4%

(further entries)

Row | Structure (SMILES) | CPE protection (higher = active)
27 | COc1cccc(CNC(=O)[C@@H]2CCCN2C(=O)[C@H]2CCCCN2C(=O)c2ccc(Cl)cc2)c1 | inactive: -6.07% [at 10 µM]
28 | C[C@@H](NC(=O)C[C@@H]1CC[C@H]2[C@@H](COC[C@H](O)CN2C(=O)Nc2ccccc2)O1)c1ccccc1 | inactive: -1.39%
29 | COc1ccc(C(CNC(=O)c2cccc3cccnc23)N(C)C)cc1 (configuration not stated) | inactive: -6.53%
30 | Cc1ccnc(NC(=O)C(Cc2ccccc2)NC(=O)c2ccccc2)c1 (configuration not stated) | inactive: -3.76%
31 | CC(C)[C@H](NC(=O)c1cccs1)C(=O)N1CCC[C@H]1C(=O)NCc1ccccc1 | inactive: 3.64%
32 | Cn1c(N)c(C(=O)N2CCN(c3ccccc3)CC2)c(=O)n(C)c1=O | inactive: 0.064%
33 | COc1ccc(S(=O)(=O)N2CC3(CN(C(=O)CN(C)C)[C@H](CO)c4c3c3ccc(OC)cc3n4C)C2)cc1 | inactive: 7.36%
34 | COc1cccc(CN(C)S(=O)(=O)c2cccs2)c1 | inactive: 4.46%
35 | FC(F)(F)c1nc2ccccc2n1CCNc1nc(CN2CCCCC2)cs1 | inactive: -11.7%
36 | CCCn1c(=O)c(C(=O)NNS(=O)(=O)c2ccc(C)cc2)c(O)c2ccccc21 | inactive: 1.54%
37 | CC1(C(=O)NS(=O)(=O)c2cccc(Cl)c2)CCN1C(=O)COc1ccc(Cl)cc1 (configuration not stated) | inactive: -12.1%
38 | CCCC(=O)OC[C@H]1CN(C2CCCC2)S(=O)(=O)c2c(F)cccc2O1 | inactive: 6.18%
39 | COc1cc(C2NC(=O)NC(C)=C2C(=O)OC2CCCC(C)C2)cc(Br)c1O (configuration not stated) | inactive: -5.33%
40 | COc1ccccc1C(CNc1ncnc2sc(C)c(C)c12)N(C)C (configuration not stated) | inactive: 9.26%
41 | C/C=C/c1cnc2c(c1)C(=O)N([C@H](C)CO)C[C@H](C)[C@H](CN(C)S(=O)(=O)c1ccccc1)O2 | inactive: 11.8%
42 | CC(=O)Nc1ccc(OCCCN2CCC(C(O)(c3ccccc3)c3ccccc3)CC2)cc1 | inactive: 4.34%
43 | COc1cc(C(=O)NCc2cccc(Cl)c2)ccc1OCC(=O)N1CCOCC1 | inactive: -20.5%
44 | O=C(OCc1ccccc1)N1CCC2CC1c1ccc(-c3ccc4c(c3)OCO4)cc12 (configuration not stated) | inactive: 14%
45 | COc1ccccc1CNC(=O)C(=O)Nc1ccc(C(=O)N2CCC(C)CC2)cc1 | inactive: -6.74%
46 | CC(C)c1cc(-c2cc(C(=O)NCc3ccccc3)on2)nc(NC2CCCC2)n1 | inactive: 8.61%
47 | CC(C)CCn1c2ccccc2c2cc(CC(N)=O)ccc21 | inactive: -14.7%
48 | CC(C)C[C@@H](CN1C(=O)C(=O)NC[C@@H]1CC(C)C)NC(=O)Cc1ccccc1 | inactive: -3.77%
49 | CCN(C(=O)COC(=O)c1cc2c(s1)CCCCC2)C1CCS(=O)(=O)C1 (configuration not stated) | inactive: 1.16%
50 | CCN(CC)S(=O)(=O)c1ccc(NC(=O)COC(=O)CNC(=O)C2CCCCC2)cc1 | inactive: 5.22%
51 | CCOC(=O)c1ccc(NC(=O)c2nc[nH]c2C(=O)NC[C@H](C)O)cc1 | inactive: -2.08%
52 | CCOC(=O)c1cc(S(=O)(=O)N2CCc3ccccc32)cn1C | inactive: -15.8%
